Results: article PMC3814370, “Functional assignment of KEOPS/EKC complex subunits in the biosynthesis of the universal t^6A tRNA modification” (Nucleic Acids Research, 2013)
Results are given in words; binding and its absence hold for the method and conditions named. Some results given as binding are weak or reduced against the parent protein; the word gives no strength. Blank lines part the entries; values can stand above or below the binder they belong to.

The chains behind the UniProt entries cited, without tags or fusion partners.
UniProt Q9UXT7: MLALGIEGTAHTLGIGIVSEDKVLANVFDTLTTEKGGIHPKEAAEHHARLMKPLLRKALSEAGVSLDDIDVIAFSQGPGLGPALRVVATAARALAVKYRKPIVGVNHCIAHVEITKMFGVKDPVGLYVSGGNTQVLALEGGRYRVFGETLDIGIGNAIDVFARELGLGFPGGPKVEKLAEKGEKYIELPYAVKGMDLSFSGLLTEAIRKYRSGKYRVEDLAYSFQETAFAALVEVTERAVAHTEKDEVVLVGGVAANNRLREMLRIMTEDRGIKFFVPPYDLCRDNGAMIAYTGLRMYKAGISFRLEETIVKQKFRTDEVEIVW

Columns and labels:
[1] = target: Kae1 from Pyrococcus abyssi (Pyrococcus abyssi) (UniProt Q9UXT7); assay: co-purification of co-expressed proteins (Ni-NTA, then gel filtration); subunits co-expressed in E. coli; extract heated at 65°C for 15 min; His-tagged proteins purified on Ni-NTA, then Superdex 200 in storage buffer (LBs); fractions analysed by SDS-PAGE
[2] = target: T1, Bud32 from Pyrococcus abyssi (Pyrococcus abyssi) (UniProt Q9UYB9); assay: as above
T1 sequence: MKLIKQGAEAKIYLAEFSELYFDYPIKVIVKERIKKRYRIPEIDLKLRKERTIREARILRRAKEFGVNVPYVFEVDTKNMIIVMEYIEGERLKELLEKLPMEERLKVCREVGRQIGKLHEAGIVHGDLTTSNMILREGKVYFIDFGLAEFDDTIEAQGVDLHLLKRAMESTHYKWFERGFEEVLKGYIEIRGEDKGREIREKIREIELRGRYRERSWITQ

[3] = target: Kae1–Bud32 binary complex from Pyrococcus abyssi (Pyrococcus abyssi) (UniProt Q9UXT7+Q9UYB9); assay: SEC; as a4, with Cgi121 added in excess to the mixture of the Pcc1–Kae1 and Kae1–Bud32 binary complexes; both purified
[4] = target: Cgi121 from Pyrococcus abyssi (Pyrococcus abyssi) (UniProt Q9UZ62); assay: SEC; gel filtration of purified proteins and complexes on Superdex 200 in storage buffer (LBs); apparent molecular mass (Supplementary Figure S2); both purified
[5] = target: Pcc1–Kae1 binary complex from Pyrococcus abyssi (Pyrococcus abyssi) (UniProt Q9V1Z9+Q9UXT7); assay: SEC; proteins or subcomplexes (100 µg each) mixed in LBs in 200 µl, 20 min at 4°C or room temperature, then Superdex 200 10/300 in LBs; eluted proteins analysed by SDS-PAGE (Supplementary Figure S3); both purified

binding [1]: binds
B2: Pcc1 from Pyrococcus abyssi (protein, UniProt Q9V1Z9 1-82)
chain: MKPKRVQGKIVIEFPSEDIAEVVYTSVLYEHVSVPYRRSRVNFRREGRRIVLEIEANDSSAMRGTVNSYLRWIKVALDVLNI

binding [2]: binds
binding [3]: binds
binding [4]: no binding
B3: Cgi121 from Pyrococcus abyssi (protein, UniProt Q9UZ62 1-171)
chain: MTPKFKNFKHDNSGQVETYLFEVISKYTMLEIKTKFGKLCIAKVKLASESIERALNLCNDNCQIVSAKCHEEVIFATILAIKAFSSGRNTAKTIKGEILLRLAGVKQIKDAIKIIGARKGENLIIYFGVSDPCSSLKDFISSLGLREEPLKPCDEDEVKRGFERAAIIEAL

Second part, the binder before the results:

B1: Bud32 from Pyrococcus abyssi (enzyme, UniProt Q9UYB9 1-220)
chain: MKLIKQGAEAKIYLAEFSELYFDYPIKVIVKERIKKRYRIPEIDLKLRKERTIREARILRRAKEFGVNVPYVFEVDTKNMIIVMEYIEGERLKELLEKLPMEERLKVCREVGRQIGKLHEAGIVHGDLTTSNMILREGKVYFIDFGLAEFDDTIEAQGVDLHLLKRAMESTHYKWFERGFEEVLKGYIEIRGEDKGREIREKIREIELRGRYRERSWITQ
binding [1]: binds

B4: Bud32–Cgi121 binary complex from Pyrococcus abyssi (complex, UniProt Q9UYB9 1-220; Q9UZ62 1-171)
chain 1: MKLIKQGAEAKIYLAEFSELYFDYPIKVIVKERIKKRYRIPEIDLKLRKERTIREARILRRAKEFGVNVPYVFEVDTKNMIIVMEYIEGERLKELLEKLPMEERLKVCREVGRQIGKLHEAGIVHGDLTTSNMILREGKVYFIDFGLAEFDDTIEAQGVDLHLLKRAMESTHYKWFERGFEEVLKGYIEIRGEDKGREIREKIREIELRGRYRERSWITQ
chain 2: MTPKFKNFKHDNSGQVETYLFEVISKYTMLEIKTKFGKLCIAKVKLASESIERALNLCNDNCQIVSAKCHEEVIFATILAIKAFSSGRNTAKTIKGEILLRLAGVKQIKDAIKIIGARKGENLIIYFGVSDPCSSLKDFISSLGLREEPLKPCDEDEVKRGFERAAIIEAL
binding [5]: binds
